Structures can show the parent of a compound that is named as a salt. This is one part of the list. Hit calls seldom repeat between salt and free forms of one compound.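 Kinases were expressed as nanoluciferase fusions in K562 cells and luminescence was read every 4 h between 2 and 18 h as percent of control, DMSO set to 100% and a positive control to 0%. A time point counts as decreased when the signal drops significantly (2 sigma). The hit call is the authors' own, does not follow from the count of time points alone, and its rule is not shown.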
Each molecule was assayed against DDR1 (UniProt Q08345) (assay: kinase-Nluc reporter destabilization hit call (1 = scored as downregulated) (binary); higher = compound decreases kinase abundance). Settings: K562; 2-18 h.

Chains of the proteins cited; added tags and fusions are not shown. Lines headed by an entry give the natural chain unless they say otherwise; changes in a name come on top.
UniProt Q08345: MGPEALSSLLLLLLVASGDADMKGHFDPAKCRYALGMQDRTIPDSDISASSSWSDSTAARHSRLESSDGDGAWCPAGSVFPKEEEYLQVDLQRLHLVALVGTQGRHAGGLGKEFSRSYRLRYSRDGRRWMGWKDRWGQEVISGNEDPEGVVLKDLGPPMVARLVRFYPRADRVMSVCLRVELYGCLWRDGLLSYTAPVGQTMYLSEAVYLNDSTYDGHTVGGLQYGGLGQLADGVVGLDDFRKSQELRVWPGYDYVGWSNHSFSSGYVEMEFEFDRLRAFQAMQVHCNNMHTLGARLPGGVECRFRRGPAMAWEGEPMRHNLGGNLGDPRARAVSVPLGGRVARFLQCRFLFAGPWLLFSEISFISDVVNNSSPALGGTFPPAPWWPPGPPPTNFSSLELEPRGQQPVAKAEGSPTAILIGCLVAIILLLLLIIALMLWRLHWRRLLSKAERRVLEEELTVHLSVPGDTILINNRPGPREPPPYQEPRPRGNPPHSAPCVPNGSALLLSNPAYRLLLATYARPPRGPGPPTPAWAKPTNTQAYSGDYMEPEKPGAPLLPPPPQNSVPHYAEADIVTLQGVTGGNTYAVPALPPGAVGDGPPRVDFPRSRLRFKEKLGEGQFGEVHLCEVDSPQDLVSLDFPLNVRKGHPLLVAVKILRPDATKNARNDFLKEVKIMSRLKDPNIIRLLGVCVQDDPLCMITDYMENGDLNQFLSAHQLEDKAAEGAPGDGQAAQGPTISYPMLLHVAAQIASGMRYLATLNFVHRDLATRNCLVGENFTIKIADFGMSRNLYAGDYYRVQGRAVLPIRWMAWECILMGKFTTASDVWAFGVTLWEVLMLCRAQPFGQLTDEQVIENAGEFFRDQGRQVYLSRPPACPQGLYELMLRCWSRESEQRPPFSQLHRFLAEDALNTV

kinase-Nluc reporter destabilization hit call, inactive:
CC#CC(=O)N[C@H]1CCCN(c2c(F)cc(C(N)=O)c3[nH]c(C)c(C)c23)C1 [Branebrutinib] (10 µM) 0, O=C1NC(=NCc2cccs2)S/C1=C\c1ccc2ncccc2c1 (10 µM) 0, Cn1c(=O)n(-c2ccc(C(C)(C)C#N)cc2)c2c3cc(-c4cnc5ccccc5c4)ccc3ncc21 [Dactolisib (Tosylate)] (10 µM) 0, COC(=O)c1ccc2c(C(=Nc3ccc(N(C)C(=O)CN4CCN(C)CC4)cc3)c3ccccc3)c(O)[nH]c2c1 [Nintedanib] (2.5 µM) 0, COc1cc2ncnc(Nc3ccc(O)cc3)c2cc1OC (10 µM) 0, O=C(c1ccc(-c2ccc(Cl)cc2)o1)N(Cc1ccccn1)c1ccc(N2CCNCC2)cc1 [MK2-IN-1 (hydrochloride)] (10 µM) 0, CN1CCN(S(=O)(=O)c2ccc(-c3cnc(N)c(C(=O)Nc4cccnc4)n3)cc2)CC1 (10 µM) 0, CN(C)C[C@@H]1CCn2cc(c3ccccc32)C2=C(C(=O)NC2=O)c2cn(c3ccccc23)CCO1 [Ruboxistaurin (hydrochloride)] (10 µM) 0, COc1ccc(Oc2cc(NCCC(F)(F)F)c3ncc(-c4ccc(C(=O)NC5CC5)c(C)c4)n3n2)c(F)c1F (2.5 µM) 0, CCCCNc1ncc(-c2ccc(CN3CCOCC3)cn2)c(NC2CCC(O)CC2)n1 (centres undefined) (10 µM) 0, O=C(Nc1cc(C(F)(F)F)ccc1N1CCN(Cc2ccccn2)CC1)c1ccc(-c2ccncc2)o1 (10 µM) 0, CC(C)(/C=C(\C#N)C(=O)N1CCC[C@@H](n2nc(-c3ccc(Oc4ccccc4)cc3F)c3c(N)ncnc32)C1)N1CCN(C2COC2)CC1 (2.5 µM) 0, CNC(=O)c1cccc2cc(Oc3ccnc4cc(OCC5(N)CC5)c(OC)cc34)ccc12 [Lucitanib] (10 µM) 0, COc1cc(F)cc([C@@H](CO)NC(=O)[C@@H](C)N2Cc3ccc(-c4nc(NC5CCOCC5)ncc4Cl)cc3C2=O)c1 [ERK1/2 inhibitor 2] (10 µM) 0, O=c1cc(-c2ccccc2)oc2c(O)c(O)ccc12 [7,8-Dihydroxyflavone] (10 µM) 0, C=CC(=O)N1CC[C@H](n2nc(C#Cc3cc(OC)cc(OC)c3)c3c(N)ncnc32)C1 [Futibatinib] (10 µM) 0, O=C1Nc2ccccc2/C1=C/c1ccc(F)cc1 (10 µM) 0, CN(C)Cc1ccc(-c2cnn3c(-c4cccc(NC(=O)c5cccc(C(F)(F)F)c5)c4)ccnc23)cc1 (2.5 µM) 0, Cc1c[nH]c(/C=C2\C(=O)Nc3ccccc32)c1CCC(=O)O (10 µM) 0, CC(C)c1ccc2oc3nc(N)c(C(=O)O)cc3c(=O)c2c1 [Amlexanox] (10 µM) 0, NS(=O)(=O)c1ccc(Nc2nc(OCC3CCCCC3)c3[nH]cnc3n2)cc1 (10 µM) 0, Cn1nc(C(C)(C)C)cc1NC(=O)Nc1ccc(Oc2ccncc2)cc1 (10 µM) 0, COc1ccc(F)c(F)c1C(=O)c1cnc(NC2CCN(S(C)(=O)=O)CC2)nc1N (2.5 µM) 0, COc1cc(C(=O)NC2CCN(C)CC2)ccc1Nc1ncc2c(n1)N(C1CCCC1)CC(F)(F)C(=O)N2C (10 µM) 0, CCN1C(=O)N(c2c(F)c(OC)cc(OC)c2F)Cc2cnc3[nH]c(CN4CCOCC4)cc3c21 [Pemigatinib] (10 µM) 0, COc1cc(Oc2ccnc3cc(OC)c(OC)cc23)ccc1NC(=O)NC(C)c1nccs1 (centres undefined) (2.5 µM) 0, C=CC(=O)N1C[C@H](Nc2ncnc3[nH]ccc23)CC[C@@H]1C [Ritlecitinib] (10 µM) 0, CC(C)(C)S(=O)(=O)c1cc2c(Nc3ccc4scnc4c3)ncnc2cc1OCCO (2.5 µM) 0, O=C(NOC[C@H](O)CO)c1ccc(F)c(F)c1Nc1ccc(I)cc1F (2.5 µM) 0, Cc1cccc([C@@H](CO)NC(=O)[C@@H](C)N2Cc3ccc(-c4nc(NC5CCOCC5)ncc4Cl)cc3C2=O)c1 [ERK1/2 inhibitor 1] (10 µM) 0, CNC(=O)c1cc(Oc2ccc(NC(=O)Nc3cc(C(C)(C)C)nn3-c3ccc4ncccc4c3)c(F)c2)ccn1 [Rebastinib] (2.5 µM) 0, CCCn1cnc2c(NCc3ccccc3)nc(NC(CC)CO)nc21 (centres undefined) [Ca2+ channel agonist 1] (2.5 µM) 0, Brc1c(Br)c(Br)c2n[nH]nc2c1Br (10 µM) 0, C=CC(=O)Nc1cccc(Nc2nc(Nc3ccc(OCCOC)cc3)ncc2F)c1 [Spebrutinib] (10 µM) 0, CC(C)=CC/C=C(\C)[C@H]1CC[C@]2(C)[C@@H]1[C@H](O)C[C@@H]1[C@@]3(C)CC[C@H](O[C@@H]4O[C@H](CO)[C@@H](O)[C@H](O)[C@H]4O[C@@H]4O[C@H](CO)[C@@H](O)[C@H](O)[C@H]4O)C(C)(C)[C@@H]3CC[C@]12C [Ginsenoside Rg5] (10 µM) 0, Cc1ncc(-c2ccnc(Nc3ccc(S(C)(=O)=O)cc3)n2)n1C(C)C (2.5 µM) 0, CN(C)CCOc1ccc(-c2nc(-c3ccncc3)c(-c3ccc4c(c3)CC/C4=N\O)[nH]2)cc1 (10 µM) 0, CCN(CCCOc1ccc2c(Nc3cc(CC(=O)Nc4cccc(F)c4)[nH]n3)ncnc2c1)CCOP(=O)(O)O [Barasertib] (10 µM) 0, C=CC(=O)N[C@H]1COC[C@H]1Nc1ncc2cc(-c3c(Cl)c(OC)cc(OC)c3Cl)c(=O)n(C)c2n1 (10 µM) 0

Reference: the supplement of paper PMC12823440, “Inhibitors supercharge kinase turnover through native proteolytic circuits” (Nature, 2025)
